According to PubChem BioAssay AID330 (DTP/NCI, 2004):
The list is a part of this screen's results and no random one: it gathers tests that were run many times, whatever their T/C, doses with no T/C, and many T/C values between a quarter and a half above the control. Other doses and runs of a compound stand elsewhere. T/C is the treated group as % of the vehicle group. Some entries give survivors of the animals treated and no T/C: the source holds a T/C of zero for them, seemingly a mark for toxic or unscored doses. Some doses without a T/C left all or most animals alive at the check, yet need not have been tolerated: survival well below the control is almost never listed, so the zero probably covers shortened survival too. Counts of survivors are from the toxicity check (mostly the fifth day) where no day follows; animals may have died later. Schedule codes are those of the source, taken here to give the interval after Q, in days (D) or hours (H), and the number of doses after X. Some entries hold several experiments; the results are listed from low to high. Where survival is the endpoint, this PubChem deposit counts one and a half times the control or more as active, and values a quarter to a half above the control carry no call in these data; other NCI protocols may use other cut-offs. Some T/C values are followed by the survivors on the day toxicity was checked, most often the fifth; without a count, all were alive then.

Tested on: P388 leukemia ip, CD2F1 mice, survival T/C
Assay: NCI In Vivo Anticancer Drug Screen. Data for tumor model P388 Leukemia (intraperitoneal) in CD2F1 (CDF1) mice
Settings: T/C endpoint: median survival time, higher T/C = longer survival
[1] = dose: 200.0 mg/kg/injection, schedule: Q04DX002 (ip), vehicle: Klucel (hydroxypropylcellulose) (HPC)
[2] = dose: 400.0 mg/kg/injection, schedule: Q04DX002 (ip), vehicle: Klucel (hydroxypropylcellulose) (HPC)
[3] = dose: 25.0 mg/kg/injection, schedule: Q01DX009 (ip), vehicle: saline with Tween-80
[4] = dose: 50.0 mg/kg/injection, schedule: Q01DX009 (ip), vehicle: saline with Tween-80
[5] = dose: 100.0 mg/kg/injection, schedule: Q01DX009 (ip), vehicle: saline with Tween-80
[6] = dose: 200.0 mg/kg/injection, schedule: Q01DX009 (ip), vehicle: saline with Tween-80
[7] = dose: 120.0 mg/kg/injection, schedule: Q01DX005 (ip), vehicle: saline with Tween-80
[8] = dose: 240.0 mg/kg/injection, schedule: Q01DX005 (ip), vehicle: saline with Tween-80
[9] = dose: 50.0 mg/kg/injection, schedule: Q01DX009 (ip), vehicle: saline
[10] = dose: 200.0 mg/kg/injection, schedule: Q01DX009 (ip), vehicle: saline
[11] = dose: 400.0 mg/kg/injection, schedule: Q01DX001 (ip), vehicle: saline with Tween-80
[12] = dose: 200.0 mg/kg/injection, schedule: Q01DX005 (ip), vehicle: saline
[13] = dose: 100.0 mg/kg/injection, schedule: Q01DX005 (ip), vehicle: Klucel (hydroxypropylcellulose) (HPC)
[14] = dose: 200.0 mg/kg/injection, schedule: Q01DX005 (ip), vehicle: Klucel (hydroxypropylcellulose) (HPC)
[15] = dose: 200.0 mg/kg/injection, schedule: Q01DX001 (ip), vehicle: Klucel (hydroxypropylcellulose) (HPC)
[16] = dose: 400.0 mg/kg/injection, schedule: Q01DX001 (ip), vehicle: Klucel (hydroxypropylcellulose) (HPC)
[17] = dose: 25.0 mg/kg/injection, schedule: Q01DX005 (ip), vehicle: saline with Tween-80
[18] = dose: 50.0 mg/kg/injection, schedule: Q01DX005 (ip), vehicle: saline with Tween-80
[19] = dose: 100.0 mg/kg/injection, schedule: Q01DX005 (ip), vehicle: saline with Tween-80
[20] = dose: 200.0 mg/kg/injection, schedule: Q01DX005 (ip), vehicle: saline with Tween-80

O=Nc1ccc(Cl)cc1
T/C (dose: 25.0 mg/kg/injection, schedule: Q04DX003 (ip), vehicle: Klucel (hydroxypropylcellulose) (HPC)): 126 % of control
T/C (dose: 50.0 mg/kg/injection, schedule: Q04DX003 (ip), vehicle: Klucel (hydroxypropylcellulose) (HPC)): 127 % of control
survivor count (dose: 100.0 mg/kg/injection, schedule: Q04DX003 (ip), vehicle: Klucel (hydroxypropylcellulose) (HPC)): 5 of 6

C1CCC(C2CCCC[N-]2)[N-]C1.C1CCC(C2CCCC[N-]2)[N-]C1.O=S(=O)(O)O.[Cu+2] (centres undefined)
survivor count (dose: 100.0 mg/kg/injection, schedule: Q04DX002 (ip), vehicle: Klucel (hydroxypropylcellulose) (HPC)): 0 of 6
survivor count [1]: 0 of 6
survivor count [2]: 0 of 6

O=NN(CCCl)C(=O)Nc1cc(=O)[nH]c(SCc2ccccc2)n1
T/C (dose: 20.12 mg/kg/injection, schedule: Q04DX002 (ip), vehicle: Klucel (hydroxypropylcellulose) (HPC)): 139 % of control
T/C (dose: 80.5 mg/kg/injection, schedule: Q04DX002 (ip), vehicle: Klucel (hydroxypropylcellulose) (HPC)): 141 % of control

CCOC(=O)c1ccc(N=NN2CN3CN(C2)CN(N=Nc2ccc(C(=O)OCC)cc2)C3)cc1
survivor count [1]: 6 of 6
survivor count [2]: 6 of 6

c1ccc2c(c1)ccc1c(NCCCCNc3c4ccccc4nc4c3ccc3ccccc34)c3ccccc3nc12
survivor count [3]: 2 of 6
survivor count [4]: 0 of 6
survivor count [5]: 0 of 6
survivor count [6]: 0 of 6

Nc1ncnc2c1c1c(=S)nc[nH]c1n2C1OC(CO)C(O)C1O (centres undefined)
T/C (dose: 6.25 mg/kg/injection, schedule: Q01DX009 (ip), vehicle: water): 138 % of control
T/C (dose: 12.5 mg/kg/injection, schedule: Q01DX009 (ip), vehicle: water): 149 % of control

COc1ccc(-c2cn3c([nH]c(=O)c4ccccc43)c2C#N)cc1
survivor count (dose: 60.0 mg/kg/injection, schedule: Q01DX005 (ip), vehicle: saline with Tween-80): 6 of 6
survivor count [7]: 6 of 6
survivor count [8]: 6 of 6

CC(CN(C)C)Nc1c2ccccc2nc2cccc([N+](=O)[O-])c12 (centres undefined)
survivor count (dose: 0.79 mg/kg/injection, schedule: Q01DX009 (ip), vehicle: saline): 5 of 6
survivor count (dose: 3.12 mg/kg/injection, schedule: Q01DX009 (ip), vehicle: saline): 0 of 6
survivor count (dose: 6.25 mg/kg/injection, schedule: Q01DX009 (ip), vehicle: saline): 0 of 6
survivor count (dose: 12.5 mg/kg/injection, schedule: Q01DX009 (ip), vehicle: saline): 0 of 6
survivor count [9]: 0 of 6
survivor count (dose: 100.0 mg/kg/injection, schedule: Q01DX009 (ip), vehicle: saline): 0 of 6
survivor count [10]: 0 of 6

COc1ccc2c(=O)c3cc([N+](=O)[O-])ccc3n(C)c2c1
survivor count (dose: 200.0 mg/kg/injection, schedule: Q01DX001 (ip), vehicle: saline with Tween-80): 6 of 6
survivor count [11]: 6 of 6

O=C1C=CC2C=CC1C=C2
survivor count [7]: 3 of 6
survivor count [8]: 0 of 6

Nc1ccc(-c2c3ccccc3nc3cc(N)ccc23)cc1
survivor count [12]: 1 of 5

CCCCCC1C(=O)CNC1(C(=O)OCC)C(=O)OCC (centres undefined)
survivor count (dose: 50.0 mg/kg/injection, schedule: Q01DX009 (ip), vehicle: Klucel (hydroxypropylcellulose) (HPC)): 6 of 6

CCCCOC(=O)/C=C(\I)C(=O)OCCCC
survivor count [5]: 3 of 6
survivor count [6]: 3 of 6

Cc1nc2ccc(N)cc2oc1=O
survivor count [7]: 1 of 6
survivor count [8]: 0 of 6

NC(=O)C(Cc1ccccc1)NC(=O)C(CSCc1ccccc1)NC(=O)OCc1ccccc1 (centres undefined)
survivor count [13]: 6 of 6
survivor count [14]: 6 of 6

CCCOc1ccc(-c2nc(-c3ccc(N=Cc4ccc(N(CCOS(C)(=O)=O)CCOS(C)(=O)=O)cc4C)cc3)cs2)cc1
T/C (dose: 1.56 mg/kg/injection, schedule: Q01DX009 (ip), vehicle: saline with Tween-80): 138 % of control [5 of 6 alive]
T/C [3]: 143 % of control
survivor count [4]: 6 of 6
survivor count [5]: 6 of 6
survivor count [6]: 6 of 6

CC(=O)N=c1ccc2nc3c(cc(N)c4ccccc43)oc-2c1
survivor count (dose: 60.0 mg/kg/injection, schedule: Q01DX005 (ip), vehicle: Klucel (hydroxypropylcellulose) (HPC)): 5 of 6
survivor count (dose: 120.0 mg/kg/injection, schedule: Q01DX005 (ip), vehicle: Klucel (hydroxypropylcellulose) (HPC)): 5 of 6
survivor count (dose: 240.0 mg/kg/injection, schedule: Q01DX005 (ip), vehicle: Klucel (hydroxypropylcellulose) (HPC)): 4 of 6

N[C@H]1CN([C@@H](C(=O)O)c2ccc(O)cc2)C1=O
survivor count (dose: 50.0 mg/kg/injection, schedule: Q01DX005 (ip), vehicle: Klucel (hydroxypropylcellulose) (HPC)): 5 of 5
T/C [13]: 125 % of control
T/C [14]: 127 % of control

CCC[CH2][Sn]([CH2]CCC)([CH2]CCC)[CH2]S(=O)(=O)O
survivor count (dose: 25.0 mg/kg/injection, schedule: Q01DX009 (ip), vehicle: saline): 1 of 6
survivor count [9]: 5 of 6
survivor count [10]: 6 of 6

O=C(NO)C1(Br)CCCCC1Br (centres undefined)
survivor count [15]: 0 of 6
survivor count [16]: 0 of 6

CC1(c2cc(Cl)c(Cl)cc2Cl)NC(=O)NC1=O (centres undefined)
survivor count [11]: 0 of 6

CC1CNC(=O)NC1=O (centres undefined)
survivor count [6]: 6 of 6

COc1ccc(C(=O)/C=C/c2ccc(OC)c(OC)c2OCc2ccccc2)c(O)c1
survivor count [16]: 6 of 6

COc1ccc(OC(=O)c2ccccc2)c2c1C(=O)C=CC2=O
survivor count (dose: 12.5 mg/kg/injection, schedule: Q01DX005 (ip), vehicle: saline with Tween-80): 3 of 5
survivor count [17]: 0 of 5
survivor count [18]: 0 of 5
survivor count [19]: 0 of 5
survivor count [20]: 0 of 5

CN(C)CCNC(=O)c1ccc(C(=O)NCCN(C)C)c2c(C(=O)NCCN(C)C)ccc(C(=O)NCCN(C)C)c12
survivor count [17]: 3 of 6
survivor count [18]: 0 of 6
survivor count [19]: 0 of 6
survivor count [20]: 0 of 6

Cc1ccc2snnc2c1
survivor count (dose: 12.5 mg/kg/injection, schedule: Q01DX009 (ip), vehicle: Klucel (hydroxypropylcellulose) (HPC)): 6 of 6
survivor count (dose: 25.0 mg/kg/injection, schedule: Q01DX009 (ip), vehicle: Klucel (hydroxypropylcellulose) (HPC)): 6 of 6
survivor count (dose: 100.0 mg/kg/injection, schedule: Q01DX001 (ip), vehicle: Klucel (hydroxypropylcellulose) (HPC)): 0 of 6
survivor count [15]: 0 of 6
survivor count [16]: 0 of 6

OCCNCCNc1ccnc2c1ccc1ccccc12
survivor count [19]: 4 of 6
survivor count [20]: 0 of 6

COC(COC(=O)N1CCN(C=O)CC1)C1=C(N2CC2)C(=O)C(C)=C(N2CC2)C1=O (centres undefined)
T/C (dose: 1.56 mg/kg/injection, schedule: Q01DX005 (ip), vehicle: saline): 146 % of control
survivor count (dose: 12.5 mg/kg/injection, schedule: Q01DX005 (ip), vehicle: saline): 4 of 6 and 6 of 6
survivor count (dose: 25.0 mg/kg/injection, schedule: Q01DX005 (ip), vehicle: saline): 0 of 6
survivor count (dose: 50.0 mg/kg/injection, schedule: Q01DX005 (ip), vehicle: saline): 0 of 6
survivor count (dose: 100.0 mg/kg/injection, schedule: Q01DX005 (ip), vehicle: saline): 0 of 6
survivor count [12]: 0 of 6
